Values from PubChem BioAssay AID504764 (Drosophila RNAi Screening Center, 2011).
Aim: 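Genome-wide screen for regulators of Notch-driven gene expression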 (primary screen). Cell system: Drosophila Kc167 cells. Reagent: long dsRNA against Drosophila genes. Duration: about 5 days (4 days dsRNA, then 24 h after transfection). Conditions: transfection of constitutively active membrane-tethered Notch lacking the extracellular domain, read 24 h later. Measured: 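Firefly luciferase from an E(spl)m3 reporter with active Notch, plus control-promoter and uninduced reporter wells for normalisation; unnormalised counts, duplicate wells a and b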. Direction: induced reporter light, run 1, well a and induced reporter light, run 1, well b: higher = more light from the Notch target reporter with active Notch; control promoter light, run 1, well a and control promoter light, run 1, well b: higher = more light from the viral control promoter (cell number, transfection, viability); uninduced reporter light, run 1, well a: higher = more light from the Notch target reporter without active Notch. Call rule: 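Wells with low control signal or poorly matching duplicates excluded; duplicates averaged; per source plate, z beyond ±2 for induced/control log2 ratio or beyond ±1.8 for induced/uninduced marks a hit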. Calls: active = modifier hit (raised or lowered Notch signal); inactive = not a hit.
The screen tested about 22,000 reagents; shown is a random part of those with a known target gene and a result. Of all reagents, 403 (1.9%) were called active. 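Unnormalised raw counts per well; ratio z-scores behind the hit calls and whether each hit raises or lowers signal are not deposited.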 Reagent sequences are not shown. Not stated in the record: the amount of reagent.

no.	gene knocked down	amplicon	induced reporter light, run 1, well a	induced reporter light, run 1, well b	control promoter light, run 1, well a	control promoter light, run 1, well b	uninduced reporter light, run 1, well a	call
1	rsh (radish)	DRSC18966	58770	54285	76370	60495	5125	inactive
2	rsh (radish)	DRSC19816	43905	46215	46905	34390	8438	inactive
3	ru (roughoid)	DRSC08258	1.13e5	1.21e5	1.66e5	2.05e5	8900	inactive
4	Nubp2 (NUBP iron-sulfur cluster assembly factor 2)	DRSC11758	1.49e5	1.39e5	1.36e5	1.30e5	8628	inactive
5	Nubpl (NUBP iron-sulfur cluster assembly factor, mitochondrial)	DRSC03725	1.86e5	1.67e5	1.59e5	1.72e5	12940	inactive
6	Ten-a (Tenascin accessory)	DRSC18924	79255	74270	89105	66455	5440	inactive
7	Ten-a (Tenascin accessory)	DRSC19496	5855	5875	13830	13005	2785	inactive
8	Ten-a (Tenascin accessory)	DRSC19700	1.25e5	1.29e5	2.34e5	2.23e5	10055	inactive
9	Ten-a (Tenascin accessory)	DRSC19793	1.04e5	1.11e5	2.06e5	1.87e5	8245	inactive
10	Ten-a (Tenascin accessory)	DRSC19864	1.38e5	1.49e5	2.27e5	2.02e5	10270	inactive
11	Ten-a (Tenascin accessory)	DRSC19865	1.02e5	1.03e5	1.97e5	1.81e5	7630	inactive
12	Ten-a (Tenascin accessory)	DRSC20290	1.13e5	1.15e5	2.01e5	2.49e5	8655	inactive
13	Ten-a (Tenascin accessory)	DRSC21461						inactive
14	CG13681 (retired record)	DRSC08906	2.17e5	2.11e5	2.77e5	2.45e5	12260	inactive
15	CG13681 (retired record)	DRSC08907	2.38e5	2.21e5	2.95e5	3.40e5	18305	inactive
16	CG13681 (retired record)	DRSC10038	2.22e5	2.61e5	2.80e5	2.75e5	9400	inactive
17	CG13681 (retired record)	DRSC10039	1.69e5	1.57e5	1.91e5	1.71e5	19015	inactive
18	CG13681 (retired record)	DRSC10927	2.07e5	2.10e5	3.06e5	1.89e5	10170	inactive
19	CG13681 (retired record)	DRSC10929	1.09e5	1.06e5	75015	53815	10410	inactive
20	smid (smallminded)	DRSC11398	1.45e5	1.72e5	1.54e5	1.53e5	7355	inactive
21	defl (deflated)	DRSC10300	1.23e5	1.43e5	83375	64265	23478	active
22	Sptz (Spastizin)	DRSC15758	69335	83570	67340	52770	5510	inactive
23	Dark (Death-associated APAF1-related killer)	DRSC05922	99710	99090	1.98e5	2.06e5	8328	inactive
24	DCTN1-p150 (Dynactin 1, p150 subunit)	DRSC11175	1.18e5	1.32e5	1.05e5	94820	10930	inactive
25	CG31058 (retired record)	DRSC15840	6980	6695	11705	12325	2700	inactive
26	CG14036	DRSC02361	79490	80520	66210	72580	4775	inactive
27	Usp32 (Ubiquitin specific protease 32)	DRSC10979	40605	32870	30040	26630	2890	inactive
28	Gat (GABA transporter)	DRSC17144	1.16e5	1.23e5	2.10e5	1.94e5	8860	inactive
29	Tk (Tachykinin)	DRSC14954	72085	78060	83045	47930	6070	inactive
30	CG34296	DRSC13961	1.64e5	1.79e5	1.56e5	1.67e5	12375	inactive
31	CG10874	DRSC00297	91605	1.06e5	85265	61260	7290	inactive
32	Rbm13 (RNA-binding motif protein 13)	DRSC17749	1.49e5	1.61e5	2.68e5	3.21e5	10940	inactive
33	CG15247	DRSC17976	1.04e5	1.07e5	2.08e5	1.97e5	8300	inactive
34	CG12477	DRSC09886	2.47e5	2.63e5	3.30e5	3.40e5	13695	inactive
35	HPS4 (Hermansky-Pudlak Syndrome 4)	DRSC06906	81585	93345	1.22e5	93330	9032	inactive
36	euc (eucalyptus)	DRSC14492	1.65e5	1.89e5	1.97e5	2.03e5	15100	inactive
37	CG14861	DRSC14984	2.17e5	2.20e5	2.27e5	2.48e5	15640	inactive
38	qkr54B (quaking related 54B)	DRSC07670	93450	96950	1.05e5	1.14e5	8345	inactive
39	lambdaTry	DRSC06137	1.26e5	1.21e5	1.92e5	1.24e5	10388	inactive
40	CG32473	DRSC14352	1.90e5	2.22e5	2.35e5	2.38e5	15870	inactive
41	CG32473	DRSC16446	1.54e5	1.55e5	98145	1.07e5	10145	inactive
42	CG17211	DRSC02587	1.34e5	1.33e5	1.31e5	1.48e5	9820	inactive
43	CG18262	DRSC18149	1.49e5	1.49e5	3.59e5	3.79e5	12965	active
44	unc-5	DRSC05545	1.88e5	1.66e5	2.56e5	2.80e5	15382	inactive
45	unc-5	DRSC07711	93835	92225	1.26e5	90515	7418	inactive
46	unc-5	DRSC07712	68840	85170	1.09e5	1.02e5	6655	inactive
47	Ufd1 (Ubiquitin fusion-degradation 1-like)	DRSC10607	1.05e5	1.01e5	67995	29440	7390	inactive
48	CG15597	DRSC12283	78340	90355	73400	97100	6465	inactive
49	U2A	DRSC06445	1.88e5	2.02e5	2.51e5	2.10e5	14775	inactive
50	puf (puffyeye)	DRSC15875	23360	25730	13690	13200	3705	inactive

Sorted by “uninduced reporter light, run 1, well a” (ascending): some entries from above.
gene knocked down	amplicon	induced reporter light, run 1, well a	induced reporter light, run 1, well b	control promoter light, run 1, well a	control promoter light, run 1, well b	uninduced reporter light, run 1, well a	call
CG31058 (retired record)	DRSC15840	6980	6695	11705	12325	2700	inactive
Usp32 (Ubiquitin specific protease 32)	DRSC10979	40605	32870	30040	26630	2890	inactive
CG14036	DRSC02361	79490	80520	66210	72580	4775	inactive
Sptz (Spastizin)	DRSC15758	69335	83570	67340	52770	5510	inactive
smid (smallminded)	DRSC11398	1.45e5	1.72e5	1.54e5	1.53e5	7355	inactive
Dark (Death-associated APAF1-related killer)	DRSC05922	99710	99090	1.98e5	2.06e5	8328	inactive
DCTN1-p150 (Dynactin 1, p150 subunit)	DRSC11175	1.18e5	1.32e5	1.05e5	94820	10930	inactive
defl (deflated)	DRSC10300	1.23e5	1.43e5	83375	64265	23478	active
